Data on one molecule can be found in article PMC8277574.

These are yes or no findings as the source states them, for the method shown. In cells and extracts the contact can be indirect. Some binding calls cover weakened binding; strength is not graded here. Where a sequence is shown, tags or fusion partners need not be part of it.

The assay concerns the target T1, MUSK JM region phosphopeptide (2), pY553, biotinylated.
T1 sequence (peptide, phosphotyrosine p(Y) (Y553); biotin (end not stated)): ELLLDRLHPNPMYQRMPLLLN
Kind of assay: pull-down; biotinylated peptides on streptavidin-agarose beads, incubated overnight at 4 °C with pre-cleared lysates of transfected HEK 293 cells in lysis buffer with 1% NP-40; blot for HA; only the target purified.

B1: HA-tagged DOK7 (protein, UniProt Q18PE0 1-504)
chain: MTEAALVEGQVKLRDGKKWKSRWLVLRKPSPVADCLLMLVYKDKCERSKGLRERSSLTLEDICGLEPALPYEGLAHTLAIICLSQAVMLGFDSHEAMCAWDTRIRYALGEVHRFHVTVAPGTKLESGPATLHLCNDILVLARDIPPTVMGQWKLSDLRRYGAVPNGFIFEGGTRCGYWAGVFFLSSAEGEQMSFLFDCIVRGISPTKGPFGLRPVLPDPSSGGPSASEERVAQEALEALQLEKRLSLLSHSGRPGSGGDDRSLSSSSSEASHSDISASSRLTAWPEQSSSSAGTSQEGPGLVAAQGPGEAMLGASRPPLKPLRPRQLQEVGRQSSSDSGIATGSHSSYSGSFSSYAGSNLDVWRAGEEFGSLLSLPPGASAPEPRLCACPPGAAEYQVPTSLRHHYDTPRSLRQAPRDPSPASQGSSDHGSATDLGGQAPTGCPSSWLGARRRGQATEGPGSDAALPSPSPGESWEAGSPHAGPPPAFFLSCSICGGLKVKPPP
Consider B1, for which the binding result is given as “binds”.
